Reference: patent US20230212268A1 (UNM RAINFOREST INNOVATIONS, published 2023)
These are yes or no findings as the source states them, for the method shown. Some results given as binding are weak or reduced against the parent protein; the word gives no strength.

Protein sequences, listed by entry. Tags and fused reporters are not part of them. Lines headed by an entry give the natural chain unless they say otherwise; changes in a name come on top. Residues count along the entry.
UniProt Q66810: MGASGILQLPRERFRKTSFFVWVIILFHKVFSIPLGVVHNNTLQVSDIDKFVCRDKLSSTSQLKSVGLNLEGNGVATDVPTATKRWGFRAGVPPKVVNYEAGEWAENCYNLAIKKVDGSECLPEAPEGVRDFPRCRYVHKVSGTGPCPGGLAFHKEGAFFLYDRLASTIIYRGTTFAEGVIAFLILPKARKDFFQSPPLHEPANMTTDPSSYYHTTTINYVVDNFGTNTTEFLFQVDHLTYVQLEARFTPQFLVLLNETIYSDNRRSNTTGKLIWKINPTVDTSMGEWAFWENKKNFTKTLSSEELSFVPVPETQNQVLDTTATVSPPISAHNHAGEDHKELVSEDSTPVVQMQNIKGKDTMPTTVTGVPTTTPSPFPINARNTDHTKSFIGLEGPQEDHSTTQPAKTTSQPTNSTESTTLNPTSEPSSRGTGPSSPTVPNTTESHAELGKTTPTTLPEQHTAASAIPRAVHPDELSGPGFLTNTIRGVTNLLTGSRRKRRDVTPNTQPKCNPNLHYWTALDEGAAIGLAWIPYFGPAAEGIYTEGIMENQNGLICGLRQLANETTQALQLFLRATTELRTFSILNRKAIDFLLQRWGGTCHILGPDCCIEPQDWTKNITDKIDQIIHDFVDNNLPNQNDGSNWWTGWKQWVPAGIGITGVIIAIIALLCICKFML
TAFV glycoprotein expressed in 293T cells (TAFV (Tai Forest virus)): residues 33-676 of Q66810
recombinant TAFV glycoprotein (TAFV (Tai Forest virus)): residues 33-650 of Q66810

What was measured:
[1] = target: TAFV glycoprotein expressed in 293T cells (TAFV (Tai Forest virus)) (UniProt Q66810); assay: IP from lysates of GP-expressing 293T cells
[2] = target: recombinant TAFV glycoprotein (TAFV (Tai Forest virus)) (UniProt Q66810); assay: ELISA, GP coated
[3] = target: recombinant TAFV glycoprotein (TAFV (Tai Forest virus)) (UniProt Q66810); assay: ELISA dose response, GP coated

Measured: binding

B1: EbovGPscFv4-2 (scFv)
scFv: MAWSHPQFEKTGSGGAELVKSGASVKLSCTASGFNIKDDYMHWVKQRPEQGLEWIGWIDPENGDTEYASKFQGKATITADTSSNTAYLQLSSLTSEDTAVYYCTTYYYGSAWFAYWGQGTLVTVSAGGGGSGGGGSGGGGSGGGGSASLSVSVGETVTITCRASGNIHNYLAWYQQKQGKSPQLLVYNAKTLADGVPSRFSGSGSGTQYSLKINNLQPEDFGSYYCQHFWSTPYTFGGGTKLEIKRADAAPTVSIFPPSSEQLTSGGASVVCFLNNFTHCQELQQDECS
binds: all assays above
